# At least one structure is not confirmed: it was looked up by name or label, or the drawing left a doubt.
# Tested on: steroid responsive genome island (SRGI)
# Experiment: Whole transcriptome RNA-Seq of steroid treated P. simplex
# Type: cell-based, Pimelobacter simplex
# Details: P. simplex exposed to steroid vs solvent control, Log2 fold change
# Source text: In order to identify steroid binding Transcription Factors, a whole transcriptome RNA sequencing (RNA-Seq) screen was developed (FIG. 7). The growth of Pimelobacter simplex bacteria was profiled with respect to the starting inoculation density, solvent toxicity, and the addition of steroids (FIG. 16). […] P. simplex bacteria were screened against the steroid solvents ethanol (EtOH) and dimethyl sulfoxide (DMSO). […] Steroid growth curves were similarly performed using a starting OD of 0.005 and constant solvent dosing with titrations of steroids. […]
# Using accession gene tags, genes were annotated for steroid relevant enzymes or transcription factors. […] With such a design, the allosteric TF can regulate itself or the open reading frame (ORF) near it in response to its effector molecule. […]
# Cells were grown in 6 mL volumes of media at the OD, solvent, and steroid concentrations found from the growth curves in 14 mL polypropylene round-bottom tubes (Corning #352059) in technical duplicate. […] Once the supernatant has been removed the samples were placed on ice and ready for RNA extraction. […] RNA samples were subsequently quantified using Qubit RNA HS Assay Kit (Thermo Fisher Scientific #Q32852) and analyzed using a RNA 6000 Pico Kit (Agilent 5067-1513) in a 2100 Bioanalyzer (Agilent G2939A). […]
smiles,measurement,value
"C[C@]12CC[C@@H]3c4ccc(O)cc4CC[C@H]3[C@@H]1CCC2=O [ESN, Estrone]",upregulation of genes inside the SRGI,not

# Source: US11360104B2, “Microbial-based biosensors” (TRUSTEES OF BOSTON UNIVERSITY, priority 2017, dated 2022)
